Earlier results, collected in patent US20110021974A1, “RETINITIS PIGMENTOSA TREATMENT AND PROPHALAXIS” (priority 2010, published 2011).
Some results were stated once for a whole list of compounds, not compound by compound. Some compounds share one range, which may span the group rather than tell each member.

Conditions: in vivo; cited from earlier work
In the case of Insulin aspart, the “Effective duration of action” value is listed as 3 to 4 h and the “Maximum duration” value is listed as 4 to 6 h. In the case of Insulin glulisine, the “Effective duration of action” value is listed as 3 to 4 h and the “Maximum duration” value is listed as 4 to 6 h. For Insulin lispro, the “Effective duration of action” value is given as 3 to 4 h and the “Maximum duration” value is given as 4 to 6 h.
